Measured values reported in patent US20210277119A1.
These are yes or no findings as the source states them, for the method shown. Some results given as binding are weak or reduced against the parent protein; the word gives no strength.

Target: recombinant protein TCRVB 6-5 (human)
Assay: SPR, TCRVB 6-5 on Biotin CAP chip

- binding: binds
B1: A-H.53 (scFv)
scFv: QVQLVQSGAEVKKPGSSVKVSCKASGYSFRLTYIHWVRQAPGQGLEWMGWFFPGSGNIKYNEKFKGRVTITADTSTSTAYMELSSLRSEDTAVYYCAGSYYSYDVLDYWGQGTTVTVSSGGGGSGGGGSGGGGSGGGGSDIQMTQSPSFLSASVGDRVTITCKASQNVGINVVWHQQKPGKAPKALIYSSSHRYSGVPSRFSGSGSGTEFTLTISSLQPEDFATYFCQQFKSYPLTFGQGTKLEIK
